Some of the results follow. The main result of the screen is listed elsewhere. These columns were measured beside it and carry no call. Most of these compounds were active or inconclusive in the main read-out, so they are no random draw. The note in brackets gives the kind of curve behind each potency; many fits are weak.
Assay: Cell signaling CRE-BLA (Fsk stim)
Conditions: CHO CRE-bla reporter (cAMP response element driving beta-lactamase), forskolin EC10, beta-lactamase ratio; measured here: 460 nm blue channel
Method in brief: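 Reporter-gene assay: CHO cells with beta-lactamase behind cAMP responsive elements, co-treated with compound and EC10 NKH 477 for 3 hours at 37 degrees Celsius. Activity came from the 460/530 nm CCF4 emission ratio.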

SMILES	AC50
COc1cc(NC(=O)c2ccco2)c(OC)cc1NC(=O)CSc1nnc(-c2cccs2)n1C	3.16 µM [rising, full curve]
COc1ccc2nc(C)c3cc(C)oc3c2c1	10 µM [rising, partial curve]
O=c1c(-c2ccc(F)cc2)nc2cnc(N3CCOCC3)nc2n1CCc1ccccc1	0.501 µM [rising, full curve]
CCOC(=O)/C(N=O)=C(\O)C1CCN(C(=O)OCC)CC1	10 µM [falling, partial curve]
C[C@@]12CC[C@@H]3c4ccc(O)cc4C[C@H](CCCCCCCCCS(=O)CCCC(F)(F)C(F)(F)F)[C@H]3[C@@H]1CC[C@@H]2O (some centres not stated)	0.126 µM [rising, full curve]
c1coc(CNc2nc(-c3ccncc3)cs2)c1	31.6 µM [falling, single point]
CCOC(=O)CCNC(=O)Nc1ccc2nc(C)n(Cc3ccc(Cl)cc3)c(=O)c2c1	5.01 µM [falling, single point]
COc1ccc2[nH]cc(CCNc3cc(-c4ccoc4)ncn3)c2c1	7.94 µM [rising, partial curve]
CCc1c(C)c2ccc(OCC(=O)N(C)C)c(C)c2oc1=O	12.6 µM [rising, partial curve]
Cn1c(NCCO)nc2c(c1=O)C1(CCCCC1)Cc1ccccc1-2	10 µM [rising, partial curve]
CCc1ccccc1NC(=O)CN(c1cccc(OC)c1)S(C)(=O)=O	1 µM [falling, full curve]
Cc1cccc2cc(CN(Cc3cccs3)C(c3nnnn3C3CCCC3)C(C)C)c(=O)[nH]c12 (configuration not stated)	0.398 µM [rising, full curve, poor fit]
CCCOCCOC(=O)c1[nH]c2c(c1C)C(=O)CC(c1cc(OC)ccc1OC)C2 (configuration not stated)	2 µM [rising, full curve]
CCCCn1ccc(=O)c2c(C(F)(F)F)nccc21	1 µM [rising, single point]
O=C(CSc1nc2nc(-c3cccs3)cc(C(F)(F)F)c2c(=O)[nH]1)NCc1ccco1	10 µM [rising, single point]
N=c1c(C(=O)NCc2ccco2)cc2c(=O)n3ccccc3nc2n1Cc1ccc(Cl)cc1	3.16 µM [rising, full curve]
CCOC(=O)C1=C(Cn2cnc3ccccc32)NC(=O)NC1c1cc(C)ccc1C (configuration not stated)	25.1 µM [falling, single point]
COC(=O)[C@@]1(Cc2ccc(F)cc2)[C@H]2c3cc(C(=O)N4CCCC4)n(CCN4CNCC4=O)c3C[C@H]2CN1C(=O)c1ccccc1	0.501 µM [rising, full curve]
C=CCSc1nc2c(c(=N)n1CC=C)C1CCCC1S2 (configuration not stated)	12.6 µM [rising, single point]
O=C(CC(=O)c1cc(Cl)ccc1O)c1ccccc1	10 µM [falling, partial curve]
Cn1c(SCc2c(Cl)cccc2Cl)nnc1-c1cccs1	15.8 µM [falling, partial curve]

Quoted from the listing.
Value for CCCOCCOC(=O)c1[nH]c2c(c1C)C(=O)CC(c1cc(OC)ccc1OC)C2 (configuration not stated) under AC50: 2 µM [rising, full curve]
Value for N=c1c(C(=O)NCc2ccco2)cc2c(=O)n3ccccc3nc2n1Cc1ccc(Cl)cc1 under AC50: 3.16 µM [rising, full curve]

(continued)

SMILES	AC50
N#Cc1nc(-c2cccc3ccccc23)oc1NCCN1CCOCC1	10 µM [rising, partial curve]
CC(C)(C)n1ncc2c(=O)n(CC(=O)c3ccccc3)cnc21	25.1 µM [rising, single point]
OCCN1CCN(C(c2cccs2)c2ccc3cccnc3c2O)CC1 (configuration not stated)	25.1 µM [falling, single point]
COc1cccc(N2CCN(C3CC(=O)N(c4ccc(Cl)cc4)C3=O)CC2)c1 (configuration not stated)	0.00398 µM [falling, full curve, poor fit]
C=CCSc1nnc2c(n1)[nH]c1c(C)cccc12	10 µM [rising, partial curve]
CCOc1ccc(-c2cc(CCCC(=O)Nc3cc(OC)ccc3OC)no2)cc1	0.398 µM [falling, partial curve]
CCCNC(=O)c1c[nH]c2ccc(S(=O)(=O)N(C)c3ccc(OCC)cc3)cc2c1=O	3.16 µM [falling, single point]
COc1ccc(N2CCN(Cc3nc(N)nc(Nc4ccc(C)c(Cl)c4)n3)CC2)cc1	25.1 µM [falling, single point]
CC(C)c1ccc(O)c(O)c(=O)c1 (tested in a mixture with another compound)	1 µM [falling, partial curve]
CN(Cc1nc2ccccc2n1C)S(=O)(=O)c1ccc(F)cc1	0.631 µM [falling, full curve, poor fit]
Oc1ccc(Cl)cc1Cc1cc(Cl)ccc1O	7.94 µM [falling, partial curve]
CC1CC(=O)c2cnc(NCC3CCCO3)nc2C1 (configuration not stated)	0.00316 µM [falling, full curve, poor fit]
Cc1noc(C)c1COc1ccc(C(=O)OC(C)C(=O)Nc2ccc(N3CCOCC3)cc2)cc1 (configuration not stated)	3.98 µM [falling, partial curve]
COC(=O)c1sc2cnccc2c1N	15.8 µM [rising, single point]
Cc1occc1C(=O)NC(C)CCc1ccccc1 (configuration not stated)	1 µM [rising, single point]
COc1cc(CN2CCC(C(=O)N3CCN(c4ccccc4F)CC3)CC2)ccc1O	5.01 µM [falling, single point]
CC(=O)Nc1ccc(S(=O)(=O)N2CCN(C(=O)CCC3CCCC3)CC2)cc1	1.26 µM [rising, partial curve]
COc1ccc(-c2csc(Cc3nnc(N4CCOCC4)n3-c3ccccc3)n2)cc1	10 µM [rising, partial curve]
CCCc1cc(-c2[nH]ncc2-c2ccc(C(=O)OCC)o2)c(O)cc1O	5.01 µM [falling, partial curve]
Cn1c(=O)c2c(nc(NCCCN3CCOCC3)n2Cc2ccc(Cl)cc2)n(C)c1=O	12.6 µM [rising, single point]
